{"source": "paper PMC6642208", "key": {"gN-TurboID-3xHA [1]": {"molecular_target": "T1, gN-TurboID-3xHA (UniProt Q40392)", "T1 sequence": "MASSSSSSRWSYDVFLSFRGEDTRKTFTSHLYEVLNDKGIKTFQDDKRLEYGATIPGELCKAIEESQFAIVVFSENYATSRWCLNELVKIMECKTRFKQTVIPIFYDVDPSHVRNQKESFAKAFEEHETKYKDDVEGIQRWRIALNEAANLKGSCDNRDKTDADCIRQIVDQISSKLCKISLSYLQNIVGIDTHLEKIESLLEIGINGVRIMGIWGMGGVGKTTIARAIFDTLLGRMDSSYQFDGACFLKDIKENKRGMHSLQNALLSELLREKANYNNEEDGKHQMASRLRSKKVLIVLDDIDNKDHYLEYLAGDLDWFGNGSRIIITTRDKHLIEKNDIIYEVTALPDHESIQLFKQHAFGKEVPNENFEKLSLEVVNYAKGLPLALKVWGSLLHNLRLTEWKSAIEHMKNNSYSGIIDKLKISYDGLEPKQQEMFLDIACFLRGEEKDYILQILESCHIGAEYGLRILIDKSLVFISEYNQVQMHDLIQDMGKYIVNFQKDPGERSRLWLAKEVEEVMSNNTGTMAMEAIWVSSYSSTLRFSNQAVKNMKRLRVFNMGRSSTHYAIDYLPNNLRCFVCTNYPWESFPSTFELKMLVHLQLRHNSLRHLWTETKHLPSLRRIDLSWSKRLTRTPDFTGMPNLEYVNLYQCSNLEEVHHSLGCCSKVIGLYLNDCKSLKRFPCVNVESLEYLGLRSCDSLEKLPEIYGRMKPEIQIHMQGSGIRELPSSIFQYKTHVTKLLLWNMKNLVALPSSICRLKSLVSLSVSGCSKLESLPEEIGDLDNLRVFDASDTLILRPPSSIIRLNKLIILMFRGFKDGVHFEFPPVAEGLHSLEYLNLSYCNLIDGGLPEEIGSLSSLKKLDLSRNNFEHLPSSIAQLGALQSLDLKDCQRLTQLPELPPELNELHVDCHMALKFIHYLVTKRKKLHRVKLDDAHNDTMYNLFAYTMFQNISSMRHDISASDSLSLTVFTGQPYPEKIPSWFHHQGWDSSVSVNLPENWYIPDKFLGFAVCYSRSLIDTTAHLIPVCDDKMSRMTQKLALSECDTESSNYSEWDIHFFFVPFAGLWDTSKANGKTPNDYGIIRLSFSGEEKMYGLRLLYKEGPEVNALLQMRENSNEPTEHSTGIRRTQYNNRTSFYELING", "assay": "proximity labelling; same TurboID labelling and TMT LC-MS/MS; results told for 'the MS dataset' (Supplementary Data 1 and 2) without saying which group (with or without p50) or which bait"}, "gN-TurboID-3xHA [2]": {"molecular_target": "T1, gN-TurboID-3xHA", "assay": "proximity labelling; Group I, without p50: TurboID fusions in N. benthamiana leaves, 200 µM biotin and 30 µM 17-β-estradiol for 12 h, streptavidin beads, TMT labelling, 2D-LC-MS/MS; enriched >1.5 fold over Citrine-TurboID, q < 0.05"}}, "note": "No constants are given. Whether binding was seen depends on the method and setting. Binding seen in cells or lysates may run through a third protein. These calls come from enrichment with a bait or labelling near it, and not all partners need be listed.", "data": [{"substance": "NbMAP65 (endogenous)", "values": [{"measurement": "binding", "setting": "gN-TurboID-3xHA [1]", "result": "binds"}]}, {"substance": "NbUBR7 (endogenous)", "values": [{"measurement": "binding", "setting": "gN-TurboID-3xHA [2]", "result": "binds"}]}, {"substance": "NbAsp (endogenous)", "values": [{"measurement": "binding", "setting": "gN-TurboID-3xHA [1]", "result": "binds"}]}, {"substance": "NbTPL4 (endogenous)", "values": [{"measurement": "binding", "setting": "gN-TurboID-3xHA [1]", "result": "binds"}]}]}
